This is one part of the list.
B1: il2ra_site1_2b5i_normal_mot_HHH_b2_04910_000000118_0001_1_19_H_._HHH_b1_03031_0001_0000300038_0000001_0_af2pred_dldesign_0_af2pred (protein)
chain: SSSSSVRELFLEADKLYQAGKYEEALELLRRARAEAEAAGQTSALKLIDSAIKNVEALLGSSSSS
B2: il2ra_site2_3nfp_normal_mot_HHH_b1_01086_000000225_0001_20_36_H_._HHH_b2_04636_af2_0001_0000500027_0000001_0_af2pred_0001_1_af2pred_swapped (protein)
chain: SSSSSKHEKFAARLLALALRVAVEAGDEEKLEKLVELAEEIARRLGDEELQEVVEEVKKLLSSSS
B3: il2ra_site2_3nfp_sap_22_mot_HHH_b1_03716_000000142_0001_40_56_H_._HHH_b2_03198_0001_0000600012_0000001_0_0001_af2pred_0001_af2pred (protein)
chain: GPSELILELLKEDEELAFLLFSLKNKVDETNDPRLEELLREALELIEEGNPEEAKEVLKEAAKIP
B4: il2ra_site1_1z92_normal_mot_HHH_b1_01831_000000045_0001_1_20_H_._3081a8c01baa413037e3e0772bd3c5f5_0001_0001_0000200028_0000001_0_af2pred_0001_af2pred (protein)
chain: SETEEELREAVEKNDPELLEEIFRLAERDAGNPELAEQFLKIALKKLGVPPEEIERILELVKELT
B5: il2ra_site2_2erj_normal_mot_HHH_b1_02757_000000121_0001_41_57_H_._HHH_b2_00384_0001_0000100002_0000001_0_af2pred_0001_1_af2pred_swapped (protein)
chain: SSSSSDEEELERRVEELLEEAKRIPDPREAMKLLQEASELAAKNNDEELLELVLRVFREASSSSS
B6: il2ra_site2_3nfp_sap_4_mot_HHH_b2_00168_000000180_0001_1_21_H_._HHH_b2_05578_af2_0001_0000500013_0000001_0_0001 (protein)
chain: SSSSDDVEEYLRAALALAREAIKQGDEELAEKILEMIRKAAEDAKDEEALEEAEELLKLVGSSSS
B7: il2ra_site1_1z92_sap_13_mot_0152819cca26c81f8eead0111e16a660_0001_000000247_0001_36_50_H_._HHH_b1_05979_0001_0000200015_0000001_0_0001 (protein)
chain: SSSSDRAARWALRLARAAVRLNNEEQLRFLFEDVELHLERTGDPEVEEILEEIEELIQLLSSSSS
B8: il2ra_site1_1z92_sap_20_mot_0152819cca26c81f8eead0111e16a660_0001_000000247_0001_36_50_H_._HHH_b2_05380_0002_0000200026_0000001_0_0001 (protein)
chain: SSSSSDIREWIEELAELLAERYKRANDPKTRRLIEWLLRQARLEGDPELEEIIEQLLRELSSSSS
B9: il2ra_site1_2b5i_sap_8_mot_HHH_b2_05260_af2_000000278_0001_1_17_H_._HHH_b1_07568_af2_0001_0000200023_0000001_0_0001_af2pred_dldesign_0_af2pred (protein)
chain: SSSSSSSEASRRARQLFLEAENVSEEEAKKLLEEALRVARAGGDARLAAAIERILESLSSSSSSS
B10: il2ra_site2_3nfp_normal_mot_HHH_b2_05605_000000133_0001_1_20_H_._HHH_b1_03122_0001_0000900026_0000001_1 (protein)
chain: SSSSNEEHERLWELAREAFELLEEGNPEEAEEVLEEARELAERLDNRSALRSIEELLKDLNSSSS
B11: il2ra_site1_1z92_sap_11_mot_HHH_b1_04488_000000139_0001_42_58_H_._HHH_b2_08307_af2_0001_0000200009_0000001_0_0001 (protein)
chain: DESMRRDLERSRELGFPPEQAVRAVIRAIADIDRVPPEEAAEILLEVLEKLGDPELAEIAEELTP
B12: il2ra_site2_2erj_sap_32_mot_67015be16ebd8dbc84c30b734c1036f2_0001_000000253_0001_18_33_H_._HHH_b2_02893_0001_0000300012_0000001_1_0001 (protein)
chain: SSSSDEVHRLYELLEELLRLLHEGDPEEIEELTEEVEKLAREAQSPNAEEVAEWILRRARSSSSS
B13: il2ra_site2_3nfp_sap_21_mot_HHH_b1_05400_af2_000000127_0001_43_57_H_._49468d6c54d8157f7969f91124172a68_0001_0001_0000200005_0000001_0_0001 (protein)
chain: SSSSSSDEEEELARELEELAEEIEDEQAREYVEALAKLLEETGDPRLREAARLAQWAHSSSSSSS
B14: il2ra_site2_2erj_sap_16_mot_HHH_b1_08207_af2_000000250_0001_43_57_H_._HHH_b1_04144_af2_0001_0000200007_0000001_1_0001 (protein)
chain: SSSSDLTMFAFRLVSRLTQELGLDAQQAAELFEFALELFERGVSEEEIKELVEELAEKLRGSSSS
B15: il2ra_site1_1z92_sap_16_mot_3afbd42359c492d9a5ba12d7e5b15de5_0001_000000167_0001_17_33_H_._HHH_b2_04284_0001_0000300007_0000001_1_0001_af2pred_0001_af2pred_1_sw … (protein)
chain: DEEIERLLREILEESNGNPEVAERELRIIRELAGGDPERVARIVAKLLRAQGDPEATEKVEELLK
B16: il2ra_site1_3nfp_normal_mot_ems_3hC_775_af2_000000149_0001_42_60_H_._HEEHE_2118_af2_0001_0000200016_0000001_0 (protein)
chain: DREEAFKEAVERLAEIAGVPHVEVEVSNGKVHVTFSGDDSQARHASKLVERAAESRGIKVEVEVE
B17: il2ra_site2_2erj_sap_20_mot_c2dd1dc352432ff47dded349a4d391fc_0001_1_000000244_0001_1_14_H_._HHH_b2_04613_af2_0001_0000100001_0000001_0_0001_af2pred_0001_1_af2pr … (protein)
chain: SSSSSDQEERIVEELIKELGGSEEDEEEARRSAKNARESGYSKESIEWYLRAAIEANLSKSSSSS
B18: il2ra_site2_3nfp_normal_mot_cd0404b092e50786c9feee19bb04a385_0001_af2_000000191_0001_16_31_H_._HHH_b2_06650_0001_0000100001_0000001_0_af2pred_0001_af2pred_1 (protein)
chain: SSSSSEEVKEALRLASELARRLYEEGDEETALELLELARRLKEEGDPELARELLEFVEEFSSSSS

Target: il2ra, P01589
Assay: yeast display titration

Apparent Kd, inactive:
B1 no binding seen
B2 no binding seen
B3 no binding seen
B4 no binding seen
B5 no binding seen
B6 no binding seen
B7 no binding seen
B8 no binding seen
B9 no binding seen
B10 no binding seen
B11 no binding seen
B12 no binding seen
B13 no binding seen
B14 no binding seen
B15 no binding seen
B16 no binding seen
B17 no binding seen
B18 no binding seen

Pulled one by one from above, 2 records:
Apparent Kd, inactive:
B7 no binding seen
B9 no binding seen
